Experimental data from ChEMBL document CHEMBL1155109, “Discovery of 4-amino and 4-hydroxy-1-aroylindoles as potent tubulin polymerization inhibitors” (J Med Chem, 2008).

Tested on: NCI-H460
Assay: Growth inhibition of human H460 cells after 72 hrs by methylene blue dye assay
Format: functional, cell-based
Conditions: NCI-H460, 72 h

Q: Which IC50 does the source give for `COc1cc2c(c(OC)c1OC)-c1ccc(OC)c(=O)cc1[C@@H](NC(C)=O)CC2` [COLCHICINE] here?
A: The IC50 was 20.2 nM.
